We go through 29 molecules from PubChem BioAssay AID330 (DTP/NCI, 2004).

Structures are written as SMILES. The list does not hold the whole screen: it is rich in T/C values a quarter to a half above the control, in often repeated tests (any T/C) and in doses without a T/C. Other doses and runs of a compound stand elsewhere. T/C: endpoint of the treated group in % of that of the vehicle group. Some doses have a count of surviving animals in place of a T/C: the source files T/C as zero there, which appears to mark a toxic dose or a test without result, not a measured value. Some doses without a T/C left all or most animals alive at the check, yet need not have been tolerated: the source hardly ever lists a survival T/C far under the control, and the zero likely stands for such cases as well. Survivors were counted at the toxicity check, usually on the fifth day, unless a day is given; later deaths do not show. Schedule codes are those of the source, read here as Q, the interval in days (D) or hours (H), X, the number of doses. Some doses were run more than once; their values stand side by side, smallest first. Some structures stand for samples that the source files as different forms (salt, stereo form or complex); doses refer to the form tested. For survival time, this PubChem deposit counts one and a half times the control or more as active, and values a quarter to a half above the control carry no call in these data; other NCI protocols may use other cut-offs. Some T/C values are followed by the survivors on the day toxicity was checked, most often the fifth; without a count, all were alive then.

The test system of this test is P388 leukemia ip, CD2F1 mice, survival T/C. The test is described as follows: NCI In Vivo Anticancer Drug Screen. Data for tumor model P388 Leukemia (intraperitoneal) in CD2F1 (CDF1) mice. To be noted: T/C endpoint: median survival time, higher T/C = longer survival.
Setting [1] is: dose: 50.0 mg/kg/injection, schedule: Q01DX009 (ip), vehicle: saline.
Where [2] appears, read: dose: 100.0 mg/kg/injection, schedule: Q01DX009 (ip), vehicle: saline.
The mark [3] stands for this setting: dose: 100.0 mg/kg/injection, schedule: Q04DX003 (ip), vehicle: saline.
Where [4] appears, read: dose: 200.0 mg/kg/injection, schedule: Q01DX009 (ip), vehicle: saline.
[5] abbreviates: dose: 200.0 mg/kg/injection, schedule: Q01DX005 (ip), vehicle: saline with Tween-80.
Setting [6] is: dose: 100.0 mg/kg/injection, schedule: Q01DX005 (ip), vehicle: Klucel (hydroxypropylcellulose) (HPC).
The mark [7] stands for this setting: dose: 200.0 mg/kg/injection, schedule: Q01DX005 (ip), vehicle: Klucel (hydroxypropylcellulose) (HPC).
Where [8] appears, read: dose: 25.0 mg/kg/injection, schedule: Q01DX009 (ip), vehicle: saline.
[9] abbreviates: dose: 50.0 mg/kg/injection, schedule: Q01DX009 (ip), vehicle: saline with Tween-80.

For the molecule `N[C@@H](Cc1c[nH]c2ccccc12)C(=O)Nc1nncs1`, the T/C by setting is: (dose: 200.0 mg/kg/injection, schedule: Q04DX002 (ip), vehicle: saline) 133 % of control; (dose: 400.0 mg/kg/injection, schedule: Q04DX002 (ip), vehicle: saline) 138 % of control; (dose: 400.0 mg/kg/injection, schedule: Q04DX002 (ip), vehicle: suspension in saline) 142 % of control.
For the molecule `O=CC1CO1` (stereo not given), the T/C under setting [1] was 127 % of control and the T/C under setting [3] is 125 % of control. Further, the survivor count under setting [2] is listed as 4 of 6.
Turning to `CC(=O)CC(C)(C)c1ccccc1`, under “dose: 600.0 mg/kg/injection, schedule: Q01DX009 (ip), vehicle: saline with Tween-80”, the survivor count is 2 of 6.
On to `CCC[CH2][Sn]([CH2]CCC)([CH2]CCC)[CH2]CCNCCCN(C)C`, for which the survivor count is 0 of 6 under setting [1]; 0 of 6 under setting [2]; 0 of 6 and 1 of 6 under setting [4].
As to `O=NNc1ccc(SSc2ccc(NN=O)cc2)cc1`, the T/C (dose: 6.25 mg/kg/injection, schedule: Q01DX009 (ip), vehicle: water) was 128 % of control. Besides, the survivor count (dose: 12.5 mg/kg/injection, schedule: Q01DX009 (ip), vehicle: water) was 2 of 6; the survivor count (dose: 25.0 mg/kg/injection, schedule: Q01DX009 (ip), vehicle: water) was 0 of 6; the survivor count (dose: 50.0 mg/kg/injection, schedule: Q01DX009 (ip), vehicle: water) is on record as 0 of 6.
On to `CC(NNC(=S)N(C)C1CCCCC1)c1nccc2ccccc12` (stereo not given), for which, for the setting “dose: 120.5 mg/kg/injection, schedule: Q01DX001 (ip), vehicle: Klucel (hydroxypropylcellulose) (HPC)”, the T/C was 142 % of control [5 of 6 alive]. Besides, the survivor count (dose: 241.0 mg/kg/injection, schedule: Q01DX001 (ip), vehicle: Klucel (hydroxypropylcellulose) (HPC)) was 1 of 6.
As for `NC1=C(O)C(=O)C(c2cccnc2)O1` (stereo not given), the survivor count (dose: 60.0 mg/kg/injection, schedule: Q01DX005 (ip), vehicle: Klucel (hydroxypropylcellulose) (HPC)) was 6 of 6.
As to `C[C@@]12CCC[C@@H]1OC(=O)C2`, the survivor count by setting is: (dose: 100.0 mg/kg/injection, schedule: Q01DX005 (ip), vehicle: saline with Tween-80) 0 of 6; under setting [5], 0 of 6.
On to `COc1ccc(OC)c2c1C(=O)C=CC2=O`, for which the survivor count runs as follows: (dose: 12.5 mg/kg/injection, schedule: Q01DX001 (ip), vehicle: saline) 3 of 5; (dose: 25.0 mg/kg/injection, schedule: Q01DX001 (ip), vehicle: saline) 1 of 5; (dose: 50.0 mg/kg/injection, schedule: Q01DX001 (ip), vehicle: saline) 0 of 5; (dose: 100.0 mg/kg/injection, schedule: Q01DX001 (ip), vehicle: saline) 0 of 6; (dose: 200.0 mg/kg/injection, schedule: Q01DX001 (ip), vehicle: saline) 0 of 6; (dose: 400.0 mg/kg/injection, schedule: Q01DX001 (ip), vehicle: saline) 0 of 6.
With `C/C(=N\O)C1CCN(Cc2ccccc2)CC1`, the survivor count is 4 of 5 under setting [6] and 0 of 5 under setting [7].
For the molecule `Cc1cc(N/N=C/c2ccccn2)c2cc3c(cc2n1)OCO3`, the survivor count is 5 of 6 under setting [6] and 1 of 6 under setting [7].
Take `CCOC(=O)CCN(CC)CC`: the T/C under setting [3] is 127 % of control and the T/C (dose: 200.0 mg/kg/injection, schedule: Q04DX003 (ip), vehicle: saline) is 145 % of control.
Take `COC1/C=C\C=C(/C)C(=O)NC2=CC(=O)C=C(C2=O)C(OC)C(C)CC(OC)C(OC)C(C)/C=C(/C)C1OC(N)=O` (stereo not given): the survivor count (dose: 12.0 mg/kg/injection, schedule: Q01DX009 (ip), vehicle: Klucel (hydroxypropylcellulose) (HPC)) was 5 of 6 and the survivor count (dose: 24.0 mg/kg/injection, schedule: Q01DX009 (ip), vehicle: Klucel (hydroxypropylcellulose) (HPC)) was 3 of 6.
For `C1CCC2OCCOCCOCCOCCOC2C1` (stereo not given), the survivor count (dose: 200.0 mg/kg/injection, schedule: Q01DX005 (ip), vehicle: saline) is on record as 0 of 5.
Consider `CNCC(=O)Nc1ccc2c(c1)C(=O)c1ccc(NC(=O)CNC)cc1C2=O`, for which the survivor count reads like this: (dose: 189.5 mg/kg/injection, schedule: Q01DX001 (ip), vehicle: suspension in saline) 0 of 6; (dose: 379.0 mg/kg/injection, schedule: Q01DX001 (ip), vehicle: suspension in saline) 1 of 6.
As for `CC1=CCC2CN(CCN(C)C)CC2C1` (stereo not given), under setting [5], the survivor count is recorded as 1 of 6.
As to `C1CC(N2CC2)CCC1N1CC1` (stereo not given), the T/C (dose: 0.39 mg/kg/injection, schedule: Q01DX009 (ip), vehicle: saline) is 130 % of control and the T/C (dose: 0.78 mg/kg/injection, schedule: Q01DX009 (ip), vehicle: saline) is 145 % of control. The survivor count is on record as 6 of 6 (dose: 6.25 mg/kg/injection, schedule: Q01DX009 (ip), vehicle: saline); 6 of 6 (dose: 12.5 mg/kg/injection, schedule: Q01DX009 (ip), vehicle: saline); 0 of 6 under setting [8].
With `OC1CSCc2ccccc21` (stereo not given), under “dose: 400.0 mg/kg/injection, schedule: Q01DX009 (ip), vehicle: other”, the survivor count was 5 of 6.
For `COC(=O)c1[nH]cnc1/N=N\N(CCF)CCF`, the T/C (dose: 30.0 mg/kg/injection, schedule: Q04DX003 (ip), vehicle: saline with Tween-80) is 130 % of control [5 of 6 alive]. Besides, where the note is “dose: 100.0 mg/kg/injection, schedule: Q04DX003 (ip), vehicle: saline with Tween-80”, the survivor count is listed as 2 of 6.
Consider `CC1(C)COCN1COCCOCN1COCC1(C)C`, for which the T/C reads like this: under setting [8], 130 % of control; under setting [1], 146 % of control; under setting [2], 128 % of control. For the same molecule, the survivor count under setting [4] is recorded as 6 of 6.
For the molecule `Cc1cccc(NC(=S)/N=C(\SCc2ccccc2)N(C)c2ccccc2)c1`, the survivor count under setting [5] is 6 of 6.
For the molecule `COc1cc2c(c(OC)c1OC)-c1ccc(OC)c(=O)cc1CC=C2`, where the note is “dose: 5.0 mg/kg/injection, schedule: Q01DX009 (ip), vehicle: Klucel (hydroxypropylcellulose) (HPC)”, the T/C is 136 % of control. In addition, the survivor count is 6 of 6 (dose: 10.0 mg/kg/injection, schedule: Q01DX009 (ip), vehicle: Klucel (hydroxypropylcellulose) (HPC)); 4 of 6 and 6 of 6 (dose: 20.0 mg/kg/injection, schedule: Q01DX009 (ip), vehicle: Klucel (hydroxypropylcellulose) (HPC)); 5 of 6 (dose: 40.0 mg/kg/injection, schedule: Q01DX009 (ip), vehicle: Klucel (hydroxypropylcellulose) (HPC)).
As to `COc1ccc2cc1-c1cc(ccc1O)CCC(O)CC1CCCC(CC(OC(C)=O)CC2)N1` (stereo not given), the survivor count (dose: 120.0 mg/kg/injection, schedule: Q01DX009 (ip), vehicle: Klucel (hydroxypropylcellulose) (HPC)) was 0 of 6.
In the case of `FP1(c2ccccc2)(c2ccccc2)Nc2cc(C(c3ccccc3)(c3ccccc3)c3ccccc3)ccc2O1`, the survivor count is recorded as 6 of 6 under setting [9] and 6 of 6 (dose: 100.0 mg/kg/injection, schedule: Q01DX009 (ip), vehicle: saline with Tween-80).
Regarding `CN1C2CCC1CC(OC(=O)CBr)C2` (stereo not given), the survivor count is on record as 4 of 6 under setting [2] and 0 of 6 under setting [4].
With `Nc1ccc(-c2csc(-c3ccccc3)n2)c(Cl)c1`, under “dose: 50.0 mg/kg/injection, schedule: Q01DX009 (ip), vehicle: Klucel (hydroxypropylcellulose) (HPC)”, the T/C is 128 % of control. The survivor count runs as follows: (dose: 100.0 mg/kg/injection, schedule: Q01DX009 (ip), vehicle: Klucel (hydroxypropylcellulose) (HPC)) 5 of 6 and 6 of 6; (dose: 200.0 mg/kg/injection, schedule: Q01DX009 (ip), vehicle: Klucel (hydroxypropylcellulose) (HPC)) 0 of 6.
As for `CC1(C)COC(c2cc(Br)ccc2Br)=N1`, under setting [9], the survivor count is 6 of 6.
On to `CC(C)=CCc1c(C)cc2cc3c(c(O)c2c1O)C(O)=CC(=O)C3(CC=C(C)C)C/C=C(\C)CO` (stereo not given), for which the survivor count under setting [7] is given as 1 of 6.
Turning to `O=C1NC(=O)C(c2ccccc2)(c2ccccc2)N1CCS`, the T/C (dose: 100.0 mg/kg/injection, schedule: Q04DX003 (ip), vehicle: Klucel (hydroxypropylcellulose) (HPC)) is 126 % of control.
